# Some of these results come from one statement about several compounds together. At least one compound was matched to its structure with a doubt left.
# Experiment: Water solubility and hydrophilic nature
# Format: physicochemical
row,Structure (SMILES),water solubility
1,COCCOCC#C[B-]1(C#CCOCCOC)n2c(C)cc(C)c2C(c2ccc(C(=O)O)cc2)=C2C(C)=CC(C)=[N+]21 [Ia-9],more than 50 mg/L
2,CCC1=C(C)C2=C(c3ccc(C(=O)O)cc3)c3c(C)c(CC)c(C)n3[B-](C#CCOCCOC)(C#CCOCCOC)[N+]2=C1C [Ia-10],more than 50 mg/L
3,CCC1=C(C)C2=C(c3ccc(I)cc3)c3c(C)c(CC)c(C)n3[B-](C#CC[N+](C)(C)CCCS(=O)(=O)[O-])(C#CC[N+](C)(C)CCCS(=O)(=O)[O-])[N+]2=C1C [Ic-1],more than 50 mg/L
